Consider 23 molecules from PubChem BioAssay AID264 (DTP/NCI, 2004).

This test deals with nude mice, LX-1 lung xenograft intrarenal, tumor weight T/C. The test is described as follows: NCI In Vivo Anticancer Drug Screen. Data for tumor model Human Lung LX-1 Xenograft (intrarenal inoculation) in NU/NU Swiss (nude) mice. The note with it: T/C endpoint: mean tumor weight change, higher T/C = larger tumour; for T/C: evaluated on day 11. An outline of the steps: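 In vivo, transplantable tumor; compound vs vehicle arms; tumor size measured; value = T/C.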

Where [1] appears, read: dose: 50.0 mg/kg/injection, schedule: Q01DX010 (sc), vehicle: saline with Tween-80.
[2] abbreviates: dose: 4.0 mg/kg/injection, schedule: Q01DX010 (sc), vehicle: saline.
Setting [3] is: dose: 8.0 mg/kg/injection, schedule: Q01DX010 (sc), vehicle: saline.
[4] abbreviates: dose: 16.0 mg/kg/injection, schedule: Q01DX010 (sc), vehicle: saline.
Setting [5] is: dose: 800.0 mg/kg/injection, schedule: Q01DX010 (sc), vehicle: saline with Tween-80.
Where [6] appears, read: dose: 100.0 mg/kg/injection, schedule: Q01DX010 (sc), vehicle: saline.
Where [7] appears, read: dose: 200.0 mg/kg/injection, schedule: Q01DX010 (sc), vehicle: saline.
[8] abbreviates: dose: 50.0 mg/kg/injection, schedule: Q01DX010 (sc), vehicle: saline.

The list does not hold the whole screen: it is rich in T/C values a quarter to a half above the control, in often repeated tests (any T/C) and in doses without a T/C. Other doses and runs of a compound stand elsewhere. T/C: endpoint of the treated group in % of that of the vehicle group. Schedule codes are those of the source, taken here to give the interval after Q, in days (D) or hours (H), and the number of doses after X. Some T/C values are negative: the treated tumours shrank. Some entries were tested several times; their values stand side by side, smallest first. Some T/C values carry the count of animals alive at the toxicity check (mostly the fifth day); where none is given, no animal had died by that day. Some doses have a count of surviving animals in place of a T/C: the source holds a T/C of zero for them, seemingly a mark for toxic or unscored doses. Survivors were counted at the toxicity check, usually on the fifth day, unless a day is given; later deaths do not show.

With `COC1=C(NC(C)=O)C(=O)c2nc(-c3nc(C(=O)O)c(C)c(-c4ccc(OC)c(OC)c4O)c3N)ccc2C1=O`, the survivor count (dose: 200.0 mg/kg/injection, schedule: Q04DX003 (sc), vehicle: Klucel (hydroxypropylcellulose) (HPC)) is reported as 3 of 5 on day 11.
As to `C[C@]12CCC(=O)C=C1CC[C@@H]1[C@@H]2C(=O)C[C@@]2(C)[C@H]1CC[C@]2(O)C(=O)CO`, where the note is “dose: 2400.0 mg/kg/injection, schedule: Q04DX003 (sc), vehicle: Klucel (hydroxypropylcellulose) (HPC)”, the survivor count was 2 of 6 on day 11.
Consider `O=C1NC(c2ccccc2)N=C2Oc3ccccc3C=C12` (stereo unspecified), for which, for the setting “dose: 400.0 mg/kg/injection, schedule: Q01DX010 (sc), vehicle: saline with Tween-80”, the survivor count is reported as 0 of 3 on day 11.
On to `Cn1/c2cc/c1=C(\c1ccc(S(=O)(=O)O)cc1)c1ccc([n-]1)/C(c1ccc(S(=O)(=O)O)cc1)=c1/cc/c([nH]1)=C(\c1ccc(S(=O)(=O)O)cc1)c1ccc([n-]1)/C=2c1ccc(S(=O)(=O)O)cc1.O.O=S(=O)(O)C(F)(F)F.[Cu+2]`, for which, under “dose: 100.0 mg/kg/injection, schedule: Q04DX003 (sc), vehicle: suspension in saline”, the T/C was 142 % of control.
In the case of `Cc1cc(NCCCCCCCNc2cc(C)nc3cc(N)ccc23)c2ccc(N)cc2n1`, the T/C runs as follows: (dose: 12.5 mg/kg/injection, schedule: Q01DX010 (sc), vehicle: saline with Tween-80) 59, 63, 73, 73 [2 of 2 alive on day 11], 114 % of control; (dose: 25.0 mg/kg/injection, schedule: Q01DX010 (sc), vehicle: saline with Tween-80) 24, 40, 51 [2 of 2 alive on day 11], 54 [2 of 2 alive on day 11], 77 % of control; under setting [1], 2 [2 of 3 alive on day 11], 9 [2 of 3 alive on day 11], 35 % of control [5 of 6 alive on day 11]. The survivor count runs as follows: under setting [1], 2 of 6 on day 11 and 2 of 4 on day 11; (dose: 100.0 mg/kg/injection, schedule: Q01DX010 (sc), vehicle: saline with Tween-80) 0 of 3 on day 11, 0 of 6 on day 11, 2 of 6 on day 11.
For the molecule `C(COCCOCC1CO1)OCCOCC1CO1` (stereo unspecified), under “dose: 800.0 mg/kg/injection, schedule: Q01DX010 (sc), vehicle: saline”, the survivor count was 0 of 3 on day 11.
For the molecule `Nc1ccc2nc3ccc(N)cc3[n+](-c3ccccc3)c2c1`, the survivor count (dose: 144.0 mg/kg/injection, schedule: Q04DX003 (sc), vehicle: saline) is reported as 1 of 6 on day 11 and the survivor count (dose: 288.0 mg/kg/injection, schedule: Q04DX003 (sc), vehicle: saline) was 0 of 6 on day 11.
For the molecule `N[C@@H](Cc1ccc(N(CCCl)CCCl)cc1)C(=O)O`, the T/C (dose: 1.0 mg/kg/injection, schedule: Q01DX010 (sc), vehicle: saline) was 131 % of control; the T/C (dose: 2.0 mg/kg/injection, schedule: Q01DX010 (sc), vehicle: saline) was 10 [2 of 3 alive on day 11], 13, 53, 111 % of control; the T/C under setting [2] was 25, 40 [2 of 3 alive on day 11], 94 % of control; the T/C under setting [3] is -61 and 22 % of control. Besides, the survivor count is, setting by setting: under setting [2], 0 of 3 on day 11; under setting [3], 0 of 3 on day 11; under setting [4], 0 of 3 on day 11.
Turning to `C/C=C/c1cc2n(c1)C(=O)c1cc(OC3OC(C)C(NC)C(C)(O)C3O)c(C)c(O)c1NC2O` (stereo unspecified), where the note is “dose: 100.0 micrograms/kg/injection, schedule: Q04DX003 (sc), vehicle: saline”, the T/C was 128 % of control.
Regarding `COc1cccc2c1C(=O)c1c(O)c3c(c(O)c1C2=O)C[C@@](O)(C(=O)COC(=O)c1cccnc1)C[C@@H]3OC1CC(N)C(O)C(C)O1` (stereo partly specified), the T/C (dose: 6.0 mg/kg/injection, schedule: Q04DX003 (sc), vehicle: saline) is 126 % of control.
Regarding `O=C(O)C(O)C(O)C1[O][Sb][O]C1C(=O)O` (stereo unspecified), the T/C (dose: 150.0 mg/kg/injection, schedule: Q04DX003 (sc), vehicle: saline) was 128 % of control. For the same molecule, the survivor count (dose: 300.0 mg/kg/injection, schedule: Q04DX003 (sc), vehicle: saline) is recorded as 1 of 6 on day 11.
For `CC[n+]1c(-c2ccccc2)c2cc(N)ccc2c2ccc(N)cc21`, where the note is “dose: 120.0 mg/kg/injection, schedule: Q04DX003 (sc), vehicle: saline”, the survivor count is on record as 0 of 6 on day 11.
Regarding `CC1C=NNC1=O` (stereo unspecified), under setting [5], the survivor count is listed as 1 of 3 on day 11.
On the same count and under the same terms, the value for `Cc1cc2nc3c(=O)[nH]c(=O)nc-3n(CC(O)C(O)C(O)C(O)CO)c2cc1C` (stereo unspecified) was 1 of 3 on day 11.
On to `Clc1ccc2nnnn2n1`, for which the survivor count (dose: 800.0 mg/kg/injection, schedule: Q04DX003 (sc), vehicle: saline with Tween-80) is given as 1 of 6 on day 11 and the survivor count (dose: 1600.0 mg/kg/injection, schedule: Q04DX003 (sc), vehicle: saline with Tween-80) was 0 of 6 on day 11.
Turning to `OCC1OC(n2cnc3c(Cl)ncnc32)C(O)C1O` (stereo unspecified), under setting [6], the T/C was 125 % of control.
In the case of `O=C1C=CN(C2OC(CO)C(O)C2O)C(=O)C1` (stereo unspecified), the survivor count is recorded as 1 of 3 on day 11 under setting [7] and 0 of 3 on day 11 (dose: 400.0 mg/kg/injection, schedule: Q01DX010 (sc), vehicle: saline).
Consider `COC1=C(OC)C(=O)C(Sc2ccc3ccccc3c2)=CC1=O`, for which the T/C (dose: 37.5 mg/kg/injection, schedule: Q04DX003 (sc), vehicle: saline with Tween-80) was 125 % of control.
As to `CC[C@](C)(O)C(=O)O[C@H]1C(=O)O[C@@H]2C[C@H]3C(C)=CC(=O)[C@@H](O)[C@]3(C)[C@H]3[C@@]4(O)OC[C@]32[C@@H]1[C@@H](C)[C@H]4O`, the survivor count (dose: 4.0 mg/kg/injection, schedule: Q01DX010 (sc), vehicle: Klucel (hydroxypropylcellulose) (HPC)) was 1 of 6 on day 11.
As to `C[N+](C)(C)c1ncnc2c1ncn2C1CCCO1` (stereo unspecified), the T/C is, setting by setting: (dose: 0.5 mg/kg/injection, schedule: Q01DX010 (sc), vehicle: saline) 128 % of control; under setting [8], 127 % of control. Besides, the survivor count was 0 of 3 on day 11 (dose: 25.0 mg/kg/injection, schedule: Q01DX010 (sc), vehicle: saline); 0 of 3 on day 11 under setting [8]; 0 of 3 on day 11 under setting [6]; 0 of 3 on day 11 under setting [7].
For the molecule `CN(C)c1nc(N(C)C)nc(N(C)C)n1`, the survivor count is, setting by setting: (dose: 60.0 mg/kg/injection, schedule: Q01DX008 (ip), vehicle: Klucel (hydroxypropylcellulose) (HPC)) 0 of 5; (dose: 120.0 mg/kg/injection, schedule: Q01DX008 (ip), vehicle: Klucel (hydroxypropylcellulose) (HPC)) 0 of 5; (dose: 240.0 mg/kg/injection, schedule: Q01DX008 (ip), vehicle: Klucel (hydroxypropylcellulose) (HPC)) 0 of 5; (dose: 480.0 mg/kg/injection, schedule: Q01DX008 (ip), vehicle: Klucel (hydroxypropylcellulose) (HPC)) 0 of 5.
As to `O=NNc1ccccn1`, the T/C under setting [4] is 136 % of control. The survivor count (dose: 128.0 mg/kg/injection, schedule: Q01DX010 (sc), vehicle: saline) is 0 of 5 on day 11.
As to `CCCCCCCCCCCCCCCCP(=O)(OCCOCCCCCC)OCCOCCCCCC`, the T/C (dose: 600.0 mg/kg/injection, schedule: Q04DX003 (sc), vehicle: saline) is 137 % of control [4 of 6 alive on day 11].
